Measured values published in paper PMC3136172.
The exact form of at least one protein or probe is not confirmed. Weaker means in comparison with the reference protein, sequence or condition of that experiment.

Chains of the proteins cited; added tags and fusions are not shown. A line that says so, or that is headed by a name, gives the form on record, which may keep a tag or linker.
RPA (full-length replication protein A) (human), one chain, as listed by the source, chain 2 of 3: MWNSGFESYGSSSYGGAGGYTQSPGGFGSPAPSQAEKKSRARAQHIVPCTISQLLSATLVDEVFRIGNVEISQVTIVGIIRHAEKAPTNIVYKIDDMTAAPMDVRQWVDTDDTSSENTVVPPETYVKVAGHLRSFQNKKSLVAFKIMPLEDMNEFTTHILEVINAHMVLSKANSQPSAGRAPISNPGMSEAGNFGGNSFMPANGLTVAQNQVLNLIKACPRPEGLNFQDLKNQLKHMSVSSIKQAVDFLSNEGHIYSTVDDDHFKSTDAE
RPA (full-length replication protein A) (human), one chain, as listed by the source, chain 3 of 3: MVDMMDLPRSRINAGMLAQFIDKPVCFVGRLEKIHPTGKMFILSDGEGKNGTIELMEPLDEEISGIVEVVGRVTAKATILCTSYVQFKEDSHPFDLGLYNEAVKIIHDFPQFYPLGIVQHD
RPA (full-length replication protein A) (human), one chain, as listed by the source, chain 1 of 3: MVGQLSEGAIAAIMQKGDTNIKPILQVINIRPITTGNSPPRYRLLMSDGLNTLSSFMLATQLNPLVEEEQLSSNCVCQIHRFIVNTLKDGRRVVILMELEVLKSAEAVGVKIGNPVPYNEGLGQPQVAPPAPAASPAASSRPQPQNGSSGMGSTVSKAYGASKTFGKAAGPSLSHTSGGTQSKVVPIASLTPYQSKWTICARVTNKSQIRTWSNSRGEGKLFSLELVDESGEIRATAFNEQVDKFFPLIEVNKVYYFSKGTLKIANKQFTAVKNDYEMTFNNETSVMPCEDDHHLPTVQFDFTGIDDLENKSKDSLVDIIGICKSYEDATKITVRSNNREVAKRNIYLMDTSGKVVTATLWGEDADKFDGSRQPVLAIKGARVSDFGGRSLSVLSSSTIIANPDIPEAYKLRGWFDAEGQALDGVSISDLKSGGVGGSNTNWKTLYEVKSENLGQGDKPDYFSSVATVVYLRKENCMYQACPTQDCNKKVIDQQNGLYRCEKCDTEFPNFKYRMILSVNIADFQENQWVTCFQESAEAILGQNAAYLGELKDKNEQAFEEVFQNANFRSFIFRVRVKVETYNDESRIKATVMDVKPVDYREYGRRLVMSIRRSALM

What was measured:
[1] = system: RPA (full-length replication protein A) (human); test: CD titration (G4 unfolding); conditions: 25 mM Tris pH 7.5, 2 mM MgCl2, 0.5% inositol, 1 mM DTT, 100 mM NaCl or 100 mM KCl, 25 C, 1.4 uM DNA, protein:DNA ratio 0-5, recombinant protein, folded or branched DNA
RPA-CDE-core = test: CD titration (G4 unfolding); conditions: 25 mM Tris pH 7.5, 2 mM MgCl2, 0.5% inositol, 1 mM DTT, 100 mM NaCl or 100 mM KCl, 25 C, 1.4 uM DNA, protein:DNA ratio 0-5, recombinant protein, protein details: N-terminal His-tag, thrombin-cleaved, folded or branched DNA
[2] = 100 mM KCl, 2 mM Mg2+, incomplete unfolding at ratio 5
[3] = K+, TMPyP4, complete unfolding inhibited

Measured: binding result

TAGGGGAAGGGTTGGAGTGGGTT [Gq23]
binds more weakly: [1]; [2] | [1]; [3] | RPA-CDE-core; [2] | RPA-CDE-core; [3]
